# Results: EP0877031A1, “TGF-Beta1 derived peptides mimicking the activity of transforming growth factor-Beta1” (INSTITUUT VOOR DIERHOUDERIJ EN DIERGEZONDHEID (ID-DLO), priority 1997, dated 1998)
# At least one peptide structure holds a part that was inferred or is arguable (an end, a ring closure or a residue). Some compounds share one wording; it may come from a single statement. Residues, ends and D or L forms follow the SMILES beside them.
# Columns and labels:
# [1] = test system: Mink lung epithelial cells (Mv 1 Lu); assay: Mv 1 Lu growth inhibition assay, preincubation with peptides followed by a suboptimal quantity of TGF-β1; format: cell-based; conditions: 4 h preincubation with peptide, then suboptimal 3.3 x 10^-3 µM TGF-β1, 5 days of incubation
# Method: (§1) An assay for TGF-β1 biological activity, bases on Mink lung epithelial cells (Mv 1 Lu), was used for analysis of the biological activity of peptides derived from the human TGF-β1 primary sequence. This assay is based on growth inhibition of Mv 1 Lu cells in presence of TGF-β1. Inhihition of Mv 1 Lu growth is quantified by acid phosphatase activity as a marker for cell growth.
# (§2) Mink lung epithelial cells (Mv 1 Lu) were plated in 96-well tissue culture plates (Costar, Cambridge, MA) at 100 cells/well in 100 µl Eagle's MEM supplemented with 20IE/ml penicillin, 1 mg/ml streptomycin, 0.4 mM L-glutamine, 10 mM HEPES and 10% FCS (HyClone, Logan, UT). Plates were incubated at 37°C and 5% CO2 in a humidified incubator for 1.5 h to allow cell attachment. After cell attachment peptides were added in a volume of 50 µl in Eagle's MEM supplemented with 20IE/ml penicillin, 1 mg/ml streptomycin, 0.4 mM L-glutamine, 10 mM HEPES and 10% FCS and titrated with eight threefold dilutions of peptide. The cells were subsequently incubated for 5 days at 37°C and 5% CO2 in a humidified incubator. After incubation cell growth was monitored using acid phosphatase activity as a marker: The plates were washed twice with 200 µl PBS per well and 100 µl of substrate solution (0.1 M sodium acetate, 0,1% Triton X-100, 3.7 mg/ml p-nitrophenyl phosphate, pH 5.5) were added to each well. The plates were then incubated for 1.5 h at 37°C, after which 25 µl of 0.4 M NaOH were added to each well. Acid phosphatase activity was detected by measuring the OD of the substrate solution using an microplate reader at 405 nm.
# In this example Mv 1 Lu cells were preincubated with TGF-β1 derived peptides which were titrated in eight threefold dilutions, starting with a peptide quantity of 10-100 µg per well. After 4 h of preincubation a suboptimal quantity of 3.3 x 10^-3 µM TGF-β1. The TGF-β1 (R&D systems, M1) Porcine TGF-β1 is 100% homologue to humam TGF-β1 (Roberts et al. in Handbook of Experimental Pharmacology, Editors Sporn, M.B.; Robers A.B.; Springer Verlag Heidelberg (1990), 95, 419) was added. After 5 days of incubation the wells were tested for acid phosphatase activity.
# [2] = test system: Mink lung epithelial cells (Mv 1 Lu); assay: Mv 1 Lu growth inhibition assay for agonistic TGF activity (peptides alone, acid phosphatase readout); format: cell-based; conditions: peptide alone, 5 days of incubation, acid phosphatase activity as marker for cell growth
# Method: as §1, §2
# In this example, all peptides comprising 12 amino acids prepared as described under the head "Peptide synthesis", were tested in the Mv 1 Lu growth inhibition assay. In this assay peptides were titrated in eight threefold dilutions, starting with a peptide quantity of 10-100 µg per well. After 5 days of incubation the wells were tested for acid phosphatase activity.
smiles,measurement,setting,value
CC(C)C[C@H](NC(=O)[C@H](C)NC(=O)[C@H](CC(C)C)NC(=O)[C@@H](NC(=O)[C@H](CCCCN)NC(=O)[C@H](CO)NC(=O)[C@H](Cc1ccc(O)cc1)NC(=O)[C@H](CCC(N)=O)NC(=O)[C@@H](N)[C@@H](C)O)C(C)C)C(=O)N[C@@H](Cc1ccc(O)cc1)C(=O)N[C@@H](CC(N)=O)C(=O)N[C@@H](CCC(N)=O)C(=O)O [TQYSKVLALYNQ] (H-TQYSKVLALYNQ-OH),enhanced inhibition of the growth of mink lung epithelial cells when combined with TGF-β1 (synergistic effect),[1],enhanced inhibition of the growth of the mink lung epithelial cells
same,growth inhibition of mink lung epithelial cells (TGF agonist activity),[2],inhibited the growth of mink lung epithelial cells in a similar way as TGF-β1 does
CC[C@H](C)[C@H](NC(=O)[C@H](CCSC)NC(=O)[C@H](CC(N)=O)NC(=O)[C@H](CO)NC(=O)[C@H](CC(C)C)NC(=O)[C@H](CCC(N)=O)NC(=O)[C@H](CCC(=O)O)NC(=O)[C@@H](NC(=O)[C@H](CCCCN)NC(=O)[C@@H]1CCCN1)C(C)C)C(=O)N[C@H](C(=O)N[C@@H](CCCNC(=N)N)C(=O)O)C(C)C [PKVEQLSNMIVR] (H-PKVEQLSNMIVR-OH),enhanced inhibition of the growth of mink lung epithelial cells when combined with TGF-β1 (synergistic effect),[1],enhanced inhibition of the growth of the mink lung epithelial cells
CC(C)C[C@H](NC(=O)[C@H](C)NC(=O)[C@H](CC(C)C)NC(=O)[C@@H](NC(=O)[C@H](CCCCN)NC(=O)[C@H](CO)NC(=O)[C@@H](N)Cc1ccc(O)cc1)C(C)C)C(=O)N[C@@H](Cc1ccc(O)cc1)C(=O)N[C@@H](CC(N)=O)C(=O)N[C@@H](CCC(N)=O)C(=O)N[C@@H](Cc1c[nH]cn1)C(=O)O [YSKVLALYNQH] (H-YSKVLALYNQH-OH),enhanced inhibition of the growth of mink lung epithelial cells when combined with TGF-β1 (synergistic effect),[1],enhanced inhibition of the growth of the mink lung epithelial cells
CC[C@H](C)[C@H](NC(=O)[C@H](Cc1c[nH]c2ccccc12)NC(=O)[C@H](CCCCN)NC(=O)[C@H](Cc1c[nH]c2ccccc12)NC(=O)CNC(=O)[C@H](CC(C)C)NC(=O)[C@H](CC(=O)O)NC(=O)[C@H](CCCCN)NC(=O)[C@@H](N)CCCNC(=N)N)C(=O)N[C@@H](Cc1c[nH]cn1)C(=O)N[C@@H](CCC(=O)O)C(=O)N1CCC[C@H]1C(=O)O [RKDLGWKWIHEP] (H-RKDLGWKWIHEP-OH),growth inhibition of mink lung epithelial cells (TGF agonist activity),[2],inhibited the growth of mink lung epithelial cells in a similar way as TGF-β1 does
CC(C)C[C@H](NC(=O)[C@H](CS)NC(=O)[C@H](Cc1ccccc1)NC(=O)[C@H](CC(N)=O)NC(=O)[C@H](C)NC(=O)[C@H](Cc1c[nH]cn1)NC(=O)[C@H](Cc1ccc(O)cc1)NC(=O)CNC(=O)[C@H](CCCCN)NC(=O)[C@@H]1CCCN1C(=O)[C@@H](N)CCC(=O)O)C(=O)NCC(=O)O [EPKGYHANFCLG] (H-EPKGYHANFCLG-OH),enhanced inhibition of the growth of mink lung epithelial cells when combined with TGF-β1 (synergistic effect),[1],enhanced inhibition of the growth of the mink lung epithelial cells
CC[C@H](C)[C@H](NC(=O)[C@H](Cc1ccc(O)cc1)NC(=O)[C@H](CC(C)C)NC(=O)[C@H](CCC(N)=O)NC(=O)[C@H](CCCNC(=N)N)NC(=O)[C@@H](NC(=O)[C@@H](N)CS)C(C)C)C(=O)N[C@@H](CC(=O)O)C(=O)N[C@@H](Cc1ccccc1)C(=O)N[C@@H](CCCNC(=N)N)C(=O)N[C@@H](CCCCN)C(=O)N[C@@H](CC(=O)O)C(=O)O [CVRQLYIDFRKD] (H-CVRQLYIDFRKD-OH),enhanced inhibition of the growth of mink lung epithelial cells when combined with TGF-β1 (synergistic effect),[1],enhanced inhibition of the growth of the mink lung epithelial cells
CC(C)C[C@H](NC(=O)[C@H](C)NC(=O)[C@H](CC(C)C)NC(=O)[C@@H](NC(=O)[C@@H](N)CCCCN)C(C)C)C(=O)N[C@@H](Cc1ccc(O)cc1)C(=O)N[C@@H](CC(N)=O)C(=O)N[C@@H](CCC(N)=O)C(=O)N[C@@H](Cc1c[nH]cn1)C(=O)N[C@@H](CC(N)=O)C(=O)N1CCC[C@H]1C(=O)O [KVLALYNQHNP] (H-KVLALYNQHNP-OH),enhanced inhibition of the growth of mink lung epithelial cells when combined with TGF-β1 (synergistic effect),[1],enhanced inhibition of the growth of the mink lung epithelial cells
CC[C@H](C)[C@H](NC(=O)[C@H](Cc1c[nH]c2ccccc12)NC(=O)[C@H](CCCCN)NC(=O)[C@H](Cc1c[nH]c2ccccc12)NC(=O)CNC(=O)[C@H](CC(C)C)NC(=O)[C@H](CC(=O)O)NC(=O)[C@H](CCCCN)NC(=O)[C@H](CCCNC(=N)N)NC(=O)[C@@H](N)Cc1ccccc1)C(=O)N[C@@H](Cc1c[nH]cn1)C(=O)N[C@@H](CCC(=O)O)C(=O)O [FRKDLGWKWIHE] (H-FRKDLGWKWIHE-OH),growth inhibition of mink lung epithelial cells (TGF agonist activity),[2],inhibited the growth of mink lung epithelial cells in a similar way as TGF-β1 does
CC[C@H](C)[C@H](NC(=O)[C@H](CCSC)NC(=O)[C@H](CC(N)=O)NC(=O)[C@H](CO)NC(=O)[C@H](CC(C)C)NC(=O)[C@H](CCC(N)=O)NC(=O)[C@@H](N)CCC(=O)O)C(=O)N[C@H](C(=O)N[C@@H](CO)C(=O)N[C@@H](CS)C(=O)N[C@@H](CCCCN)C(=O)O)C(C)C [EQLSNMIVSCK] (H-EQLSNMIVSCK-OH),growth inhibition of mink lung epithelial cells (TGF agonist activity),[2],inhibited the growth of mink lung epithelial cells in a similar way as TGF-β1 does
CC[C@H](C)[C@H](NC(=O)[C@H](Cc1ccc(O)cc1)NC(=O)[C@@H](N)CC(C)C)C(=O)N[C@@H](CC(=O)O)C(=O)N[C@@H](Cc1ccccc1)C(=O)N[C@@H](CCCNC(=N)N)C(=O)N[C@@H](CCCCN)C(=O)N[C@@H](CC(=O)O)C(=O)N[C@@H](CC(C)C)C(=O)NCC(=O)N[C@@H](Cc1c[nH]c2ccccc12)C(=O)N[C@@H](CCCCN)C(=O)O [LYIDFRKDLGWK] (H-LYIDFRKDLGWK-OH),growth inhibition of mink lung epithelial cells (TGF agonist activity),[2],inhibited the growth of mink lung epithelial cells in a similar way as TGF-β1 does
C[C@H](NC(=O)CNC(=O)[C@@H]1CCCN1C(=O)[C@H](CC(N)=O)NC(=O)[C@H](Cc1c[nH]cn1)NC(=O)[C@H](CCC(N)=O)NC(=O)[C@@H](N)CC(N)=O)C(=O)N[C@@H](CO)C(=O)N[C@@H](C)C(=O)N[C@@H](C)C(=O)N1CCC[C@H]1C(=O)N[C@@H](CS)C(=O)O [NQHNPGASAAPC] (H-NQHNPGASAAPC-OH),enhanced inhibition of the growth of mink lung epithelial cells when combined with TGF-β1 (synergistic effect),[1],enhanced inhibition of the growth of the mink lung epithelial cells
CC[C@H](C)[C@H](NC(=O)[C@H](Cc1ccc(O)cc1)NC(=O)[C@H](CC(C)C)NC(=O)[C@H](CCC(N)=O)NC(=O)[C@@H](N)CCCNC(=N)N)C(=O)N[C@@H](CC(=O)O)C(=O)N[C@@H](Cc1ccccc1)C(=O)N[C@@H](CCCNC(=N)N)C(=O)N[C@@H](CCCCN)C(=O)N[C@@H](CC(=O)O)C(=O)N[C@@H](CC(C)C)C(=O)NCC(=O)O [RQLYIDFRKDLG] (H-RQLYIDFRKDLG-OH),enhanced inhibition of the growth of mink lung epithelial cells when combined with TGF-β1 (synergistic effect),[1],enhanced inhibition of the growth of the mink lung epithelial cells
CC(C)C[C@H](NC(=O)[C@H](C)NC(=O)[C@H](CC(C)C)NC(=O)[C@@H](NC(=O)[C@H](CCCCN)NC(=O)[C@H](CO)NC(=O)[C@@H](N)Cc1ccc(O)cc1)C(C)C)C(=O)N[C@@H](Cc1ccc(O)cc1)C(=O)N[C@@H](CC(N)=O)C(=O)N[C@@H](CCC(N)=O)C(=O)N[C@@H](Cc1c[nH]cn1)C(=O)N[C@@H](CC(N)=O)C(=O)O [YSKVLALYNQHN] (H-YSKVLALYNQHN-OH),growth inhibition of mink lung epithelial cells (TGF agonist activity),[2],inhibited the growth of mink lung epithelial cells in a similar way as TGF-β1 does
CC[C@H](C)[C@H](NC(=O)[C@H](Cc1ccc(O)cc1)NC(=O)[C@H](CC(C)C)NC(=O)[C@H](CCC(N)=O)NC(=O)[C@H](CCCNC(=N)N)NC(=O)[C@@H](N)C(C)C)C(=O)N[C@@H](CC(=O)O)C(=O)N[C@@H](Cc1ccccc1)C(=O)N[C@@H](CCCNC(=N)N)C(=O)N[C@@H](CCCCN)C(=O)N[C@@H](CC(=O)O)C(=O)N[C@@H](CC(C)C)C(=O)O [VRQLYIDFRKDL] (H-VRQLYIDFRKDL-OH),enhanced inhibition of the growth of mink lung epithelial cells when combined with TGF-β1 (synergistic effect),[1],enhanced inhibition of the growth of the mink lung epithelial cells
CC(C)C[C@H](N)C(=O)N[C@@H](Cc1ccc(O)cc1)C(=O)N[C@@H](CC(N)=O)C(=O)N[C@@H](CCC(N)=O)C(=O)N[C@@H](Cc1c[nH]cn1)C(=O)N[C@@H](CC(N)=O)C(=O)N1CCC[C@H]1C(=O)NCC(=O)N[C@@H](C)C(=O)N[C@@H](CO)C(=O)N[C@@H](C)C(=O)N[C@@H](C)C(=O)O [LYNQHNPGASAA] (H-LYNQHNPGASAA-OH),growth inhibition of mink lung epithelial cells (TGF agonist activity),[2],inhibited the growth of mink lung epithelial cells in a similar way as TGF-β1 does
